Earlier results, collected in patent US6117857A, “Pharmaceutical composition” (priority 1995, dated 2000).
For at least one compound, name, drawing or mass did not settle the structure.

Settings: phospholipid liposomes; WO 89/05152; cited from earlier work

## O=C(O)CP(=O)(O)O [phosphonoacetate]
  Intracellular antiviral activity in liposome-encapsulated form: several-fold higher intracellular antiviral activity
